Data on one substance can be found in PMC11601938.

Protein sequences, listed by entry. Tags and fused reporters are not part of them. Lines headed by an entry give the natural chain unless they say otherwise; changes in a name come on top.
UniProt Q8N653: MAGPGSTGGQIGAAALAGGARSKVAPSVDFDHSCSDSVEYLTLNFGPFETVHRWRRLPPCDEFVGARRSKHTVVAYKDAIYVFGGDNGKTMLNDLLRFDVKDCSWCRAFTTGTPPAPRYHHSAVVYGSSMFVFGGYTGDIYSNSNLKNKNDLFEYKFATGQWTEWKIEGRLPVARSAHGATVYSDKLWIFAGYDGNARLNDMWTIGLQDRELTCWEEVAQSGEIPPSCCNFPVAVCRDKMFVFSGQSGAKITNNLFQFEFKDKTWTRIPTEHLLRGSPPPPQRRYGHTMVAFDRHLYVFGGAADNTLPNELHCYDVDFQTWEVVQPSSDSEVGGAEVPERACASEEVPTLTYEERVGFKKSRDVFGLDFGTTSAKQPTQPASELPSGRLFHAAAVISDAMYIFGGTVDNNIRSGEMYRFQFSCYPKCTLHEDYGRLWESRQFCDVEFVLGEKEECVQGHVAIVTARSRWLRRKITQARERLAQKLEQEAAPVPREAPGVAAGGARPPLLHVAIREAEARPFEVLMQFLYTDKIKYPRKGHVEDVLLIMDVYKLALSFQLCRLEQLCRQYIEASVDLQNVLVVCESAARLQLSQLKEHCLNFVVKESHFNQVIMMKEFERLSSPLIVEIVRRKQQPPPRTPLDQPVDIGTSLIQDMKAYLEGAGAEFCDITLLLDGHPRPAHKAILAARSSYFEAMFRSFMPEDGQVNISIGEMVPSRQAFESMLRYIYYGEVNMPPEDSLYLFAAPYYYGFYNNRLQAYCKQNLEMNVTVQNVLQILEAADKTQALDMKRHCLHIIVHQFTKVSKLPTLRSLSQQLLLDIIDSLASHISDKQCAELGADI
UniProt Q92963: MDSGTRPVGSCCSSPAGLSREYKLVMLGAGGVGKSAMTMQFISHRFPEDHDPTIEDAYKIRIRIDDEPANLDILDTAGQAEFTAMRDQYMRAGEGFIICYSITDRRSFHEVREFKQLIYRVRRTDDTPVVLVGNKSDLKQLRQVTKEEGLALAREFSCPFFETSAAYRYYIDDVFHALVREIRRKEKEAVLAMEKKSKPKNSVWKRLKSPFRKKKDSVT

The assay deals with FLAG-LZTR1 AD mutant at R283, in vitro translated (human) (UniProt Q8N653). The experiment in a line: co-IP; in vitro translated FLAG-LZTR1 WT or mutants incubated with HEK293-KO (LZTR1-KO) whole-cell lysate and FLAG-M2 magnetic beads for 12 hours; immunoblot for endogenous RAS subfamily proteins. On the technique in general: Immunoblotting shows a protein as a band on a membrane.

Results are given in words; binding and its absence hold for the method and conditions named. In cells and extracts the contact can be indirect.

In the case of “RIT1 (Ras-like without CAAX 1), endogenous (from UniProt Q92963 1-219)”, the binding entry was “no binding”.
